In paper PMC10372072:
These are yes or no findings as the source states them, for the method shown. Some binding calls cover weakened binding; strength is not graded here.

Amino acid sequences for entries named in this document (tags omitted).
UniProt P50750: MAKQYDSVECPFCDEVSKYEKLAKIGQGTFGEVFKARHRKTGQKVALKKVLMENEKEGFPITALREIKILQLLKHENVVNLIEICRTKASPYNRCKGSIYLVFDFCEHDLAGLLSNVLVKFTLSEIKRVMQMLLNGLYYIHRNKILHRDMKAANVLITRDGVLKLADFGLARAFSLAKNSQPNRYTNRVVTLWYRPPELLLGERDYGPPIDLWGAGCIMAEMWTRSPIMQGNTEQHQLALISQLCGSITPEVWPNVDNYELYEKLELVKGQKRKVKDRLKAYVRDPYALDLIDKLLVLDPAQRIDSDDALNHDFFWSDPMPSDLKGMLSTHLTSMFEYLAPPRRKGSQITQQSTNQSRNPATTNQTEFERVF
UniProt Q96SW2: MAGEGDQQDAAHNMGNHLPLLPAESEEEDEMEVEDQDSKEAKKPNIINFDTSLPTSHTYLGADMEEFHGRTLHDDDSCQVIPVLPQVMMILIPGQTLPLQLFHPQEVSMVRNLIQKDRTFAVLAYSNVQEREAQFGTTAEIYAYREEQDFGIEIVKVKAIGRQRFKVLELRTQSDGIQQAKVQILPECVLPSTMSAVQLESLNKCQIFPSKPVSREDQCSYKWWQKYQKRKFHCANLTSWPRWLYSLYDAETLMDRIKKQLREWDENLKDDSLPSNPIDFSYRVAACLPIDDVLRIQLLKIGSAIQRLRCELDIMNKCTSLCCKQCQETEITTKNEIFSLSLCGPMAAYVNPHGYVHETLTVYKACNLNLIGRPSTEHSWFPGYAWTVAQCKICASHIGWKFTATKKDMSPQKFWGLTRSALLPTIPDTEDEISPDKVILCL

Target: human recombinant CDK9 protein (cyclin-dependent kinase 9) (human) (UniProt P50750)
Test: SPR; CDK9 immobilised on a CM5 chip; free CRBN protein without DbTACs, twofold serial dilution in PBS-P running buffer; multicycle kinetics, 298.15 K; both purified

binding: binds weakly
Substance: human recombinant CRBN protein (cereblon) (from UniProt Q96SW2 1-442)
